Results reported in the supplement of paper PMC10849652.
The list shows a part of the results.

By UniProt entry, the sequences of proteins in these tests, tags left out. Where a name states a change or a piece, a line headed by the entry shows the natural chain unless it says otherwise.
UniProt Q9UBC2: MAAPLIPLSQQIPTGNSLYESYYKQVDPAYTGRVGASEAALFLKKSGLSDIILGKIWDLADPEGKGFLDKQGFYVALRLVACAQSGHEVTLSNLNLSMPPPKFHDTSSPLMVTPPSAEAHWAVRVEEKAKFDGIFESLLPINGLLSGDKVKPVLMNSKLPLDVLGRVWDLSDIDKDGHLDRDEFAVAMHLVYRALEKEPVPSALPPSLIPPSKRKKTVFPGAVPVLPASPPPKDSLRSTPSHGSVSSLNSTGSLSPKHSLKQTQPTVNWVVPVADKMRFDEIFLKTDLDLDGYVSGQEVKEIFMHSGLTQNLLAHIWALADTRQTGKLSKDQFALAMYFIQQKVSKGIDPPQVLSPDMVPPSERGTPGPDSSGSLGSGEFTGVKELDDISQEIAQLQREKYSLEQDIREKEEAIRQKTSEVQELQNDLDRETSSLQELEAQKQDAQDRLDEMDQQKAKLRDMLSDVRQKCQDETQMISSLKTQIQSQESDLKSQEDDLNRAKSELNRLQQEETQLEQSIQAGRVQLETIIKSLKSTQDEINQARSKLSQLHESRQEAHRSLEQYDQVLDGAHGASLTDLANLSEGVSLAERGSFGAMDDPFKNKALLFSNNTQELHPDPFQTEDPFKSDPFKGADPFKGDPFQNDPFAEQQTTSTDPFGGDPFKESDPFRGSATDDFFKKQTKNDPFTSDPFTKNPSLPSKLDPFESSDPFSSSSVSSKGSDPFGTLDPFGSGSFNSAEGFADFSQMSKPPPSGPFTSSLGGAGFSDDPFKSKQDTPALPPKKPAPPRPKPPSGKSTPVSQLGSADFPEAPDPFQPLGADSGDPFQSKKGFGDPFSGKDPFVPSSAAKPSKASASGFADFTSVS
UniProt P16422: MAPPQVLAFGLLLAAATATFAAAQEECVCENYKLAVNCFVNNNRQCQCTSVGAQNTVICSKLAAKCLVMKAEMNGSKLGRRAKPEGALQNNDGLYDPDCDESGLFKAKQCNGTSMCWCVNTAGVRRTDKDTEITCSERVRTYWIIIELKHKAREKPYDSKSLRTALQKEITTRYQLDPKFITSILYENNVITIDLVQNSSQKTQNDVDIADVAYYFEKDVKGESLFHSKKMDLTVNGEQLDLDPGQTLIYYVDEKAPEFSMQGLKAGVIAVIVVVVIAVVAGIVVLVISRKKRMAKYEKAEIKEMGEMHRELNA
UniProt Q15717, whole entry, looked up: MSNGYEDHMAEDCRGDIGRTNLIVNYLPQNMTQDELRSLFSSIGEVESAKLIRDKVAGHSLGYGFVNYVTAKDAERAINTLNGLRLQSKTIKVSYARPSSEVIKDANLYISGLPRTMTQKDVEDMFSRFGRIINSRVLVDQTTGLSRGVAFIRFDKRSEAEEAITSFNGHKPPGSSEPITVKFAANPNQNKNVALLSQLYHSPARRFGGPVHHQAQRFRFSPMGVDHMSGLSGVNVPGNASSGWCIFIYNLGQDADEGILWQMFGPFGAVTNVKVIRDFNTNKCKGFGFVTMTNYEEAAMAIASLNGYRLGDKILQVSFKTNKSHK
UniProt P55199: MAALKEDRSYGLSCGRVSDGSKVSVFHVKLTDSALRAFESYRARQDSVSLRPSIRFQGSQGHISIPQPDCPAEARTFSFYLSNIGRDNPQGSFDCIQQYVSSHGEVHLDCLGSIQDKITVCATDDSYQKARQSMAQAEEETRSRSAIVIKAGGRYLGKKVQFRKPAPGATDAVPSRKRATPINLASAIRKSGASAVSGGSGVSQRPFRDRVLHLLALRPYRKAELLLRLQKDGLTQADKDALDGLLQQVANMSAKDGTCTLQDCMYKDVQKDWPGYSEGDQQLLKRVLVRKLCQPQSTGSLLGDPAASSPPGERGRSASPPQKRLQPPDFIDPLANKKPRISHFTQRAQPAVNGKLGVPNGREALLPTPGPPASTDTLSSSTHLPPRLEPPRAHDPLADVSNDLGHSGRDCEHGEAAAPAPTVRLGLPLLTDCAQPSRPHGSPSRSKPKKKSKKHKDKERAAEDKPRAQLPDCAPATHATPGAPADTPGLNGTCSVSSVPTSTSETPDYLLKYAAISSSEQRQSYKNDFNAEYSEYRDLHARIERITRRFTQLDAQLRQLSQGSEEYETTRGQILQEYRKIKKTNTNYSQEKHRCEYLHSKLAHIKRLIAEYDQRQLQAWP
UniProt Q53HC9: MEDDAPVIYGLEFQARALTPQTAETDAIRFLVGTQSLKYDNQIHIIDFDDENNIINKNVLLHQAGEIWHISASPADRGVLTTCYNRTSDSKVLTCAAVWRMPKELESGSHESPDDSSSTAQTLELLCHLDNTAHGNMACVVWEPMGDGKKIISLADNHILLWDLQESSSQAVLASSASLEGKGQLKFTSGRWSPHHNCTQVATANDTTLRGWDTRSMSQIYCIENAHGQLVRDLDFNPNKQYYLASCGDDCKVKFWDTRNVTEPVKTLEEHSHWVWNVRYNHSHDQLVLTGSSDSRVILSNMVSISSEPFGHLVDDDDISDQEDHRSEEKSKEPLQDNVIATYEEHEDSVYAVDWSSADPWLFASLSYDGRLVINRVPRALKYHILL
UniProt O43491, whole entry, looked up: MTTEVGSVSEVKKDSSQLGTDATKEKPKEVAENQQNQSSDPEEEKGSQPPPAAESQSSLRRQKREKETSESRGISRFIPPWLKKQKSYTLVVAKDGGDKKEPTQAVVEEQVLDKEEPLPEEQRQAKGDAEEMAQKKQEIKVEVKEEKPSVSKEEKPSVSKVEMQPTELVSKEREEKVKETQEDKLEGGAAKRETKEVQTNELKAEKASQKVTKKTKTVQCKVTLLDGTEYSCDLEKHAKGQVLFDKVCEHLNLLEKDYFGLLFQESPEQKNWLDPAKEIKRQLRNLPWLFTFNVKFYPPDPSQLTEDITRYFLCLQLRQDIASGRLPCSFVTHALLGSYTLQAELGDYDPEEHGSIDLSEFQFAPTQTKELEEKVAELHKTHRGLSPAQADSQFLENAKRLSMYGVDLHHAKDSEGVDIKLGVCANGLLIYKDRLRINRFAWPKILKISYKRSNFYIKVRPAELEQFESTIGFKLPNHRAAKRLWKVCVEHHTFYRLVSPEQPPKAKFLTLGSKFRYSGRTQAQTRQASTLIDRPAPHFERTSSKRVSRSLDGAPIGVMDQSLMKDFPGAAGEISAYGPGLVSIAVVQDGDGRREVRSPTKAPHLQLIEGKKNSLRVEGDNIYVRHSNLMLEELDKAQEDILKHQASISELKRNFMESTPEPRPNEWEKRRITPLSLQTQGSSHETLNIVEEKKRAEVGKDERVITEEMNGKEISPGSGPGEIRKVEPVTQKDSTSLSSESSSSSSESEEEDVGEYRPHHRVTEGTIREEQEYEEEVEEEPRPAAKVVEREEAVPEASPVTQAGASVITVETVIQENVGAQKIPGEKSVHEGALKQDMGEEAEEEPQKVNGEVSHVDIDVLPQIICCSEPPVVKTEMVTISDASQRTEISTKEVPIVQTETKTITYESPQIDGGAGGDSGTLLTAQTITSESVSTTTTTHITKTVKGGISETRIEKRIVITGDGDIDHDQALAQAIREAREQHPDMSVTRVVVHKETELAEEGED
UniProt Q09472, whole entry, looked up: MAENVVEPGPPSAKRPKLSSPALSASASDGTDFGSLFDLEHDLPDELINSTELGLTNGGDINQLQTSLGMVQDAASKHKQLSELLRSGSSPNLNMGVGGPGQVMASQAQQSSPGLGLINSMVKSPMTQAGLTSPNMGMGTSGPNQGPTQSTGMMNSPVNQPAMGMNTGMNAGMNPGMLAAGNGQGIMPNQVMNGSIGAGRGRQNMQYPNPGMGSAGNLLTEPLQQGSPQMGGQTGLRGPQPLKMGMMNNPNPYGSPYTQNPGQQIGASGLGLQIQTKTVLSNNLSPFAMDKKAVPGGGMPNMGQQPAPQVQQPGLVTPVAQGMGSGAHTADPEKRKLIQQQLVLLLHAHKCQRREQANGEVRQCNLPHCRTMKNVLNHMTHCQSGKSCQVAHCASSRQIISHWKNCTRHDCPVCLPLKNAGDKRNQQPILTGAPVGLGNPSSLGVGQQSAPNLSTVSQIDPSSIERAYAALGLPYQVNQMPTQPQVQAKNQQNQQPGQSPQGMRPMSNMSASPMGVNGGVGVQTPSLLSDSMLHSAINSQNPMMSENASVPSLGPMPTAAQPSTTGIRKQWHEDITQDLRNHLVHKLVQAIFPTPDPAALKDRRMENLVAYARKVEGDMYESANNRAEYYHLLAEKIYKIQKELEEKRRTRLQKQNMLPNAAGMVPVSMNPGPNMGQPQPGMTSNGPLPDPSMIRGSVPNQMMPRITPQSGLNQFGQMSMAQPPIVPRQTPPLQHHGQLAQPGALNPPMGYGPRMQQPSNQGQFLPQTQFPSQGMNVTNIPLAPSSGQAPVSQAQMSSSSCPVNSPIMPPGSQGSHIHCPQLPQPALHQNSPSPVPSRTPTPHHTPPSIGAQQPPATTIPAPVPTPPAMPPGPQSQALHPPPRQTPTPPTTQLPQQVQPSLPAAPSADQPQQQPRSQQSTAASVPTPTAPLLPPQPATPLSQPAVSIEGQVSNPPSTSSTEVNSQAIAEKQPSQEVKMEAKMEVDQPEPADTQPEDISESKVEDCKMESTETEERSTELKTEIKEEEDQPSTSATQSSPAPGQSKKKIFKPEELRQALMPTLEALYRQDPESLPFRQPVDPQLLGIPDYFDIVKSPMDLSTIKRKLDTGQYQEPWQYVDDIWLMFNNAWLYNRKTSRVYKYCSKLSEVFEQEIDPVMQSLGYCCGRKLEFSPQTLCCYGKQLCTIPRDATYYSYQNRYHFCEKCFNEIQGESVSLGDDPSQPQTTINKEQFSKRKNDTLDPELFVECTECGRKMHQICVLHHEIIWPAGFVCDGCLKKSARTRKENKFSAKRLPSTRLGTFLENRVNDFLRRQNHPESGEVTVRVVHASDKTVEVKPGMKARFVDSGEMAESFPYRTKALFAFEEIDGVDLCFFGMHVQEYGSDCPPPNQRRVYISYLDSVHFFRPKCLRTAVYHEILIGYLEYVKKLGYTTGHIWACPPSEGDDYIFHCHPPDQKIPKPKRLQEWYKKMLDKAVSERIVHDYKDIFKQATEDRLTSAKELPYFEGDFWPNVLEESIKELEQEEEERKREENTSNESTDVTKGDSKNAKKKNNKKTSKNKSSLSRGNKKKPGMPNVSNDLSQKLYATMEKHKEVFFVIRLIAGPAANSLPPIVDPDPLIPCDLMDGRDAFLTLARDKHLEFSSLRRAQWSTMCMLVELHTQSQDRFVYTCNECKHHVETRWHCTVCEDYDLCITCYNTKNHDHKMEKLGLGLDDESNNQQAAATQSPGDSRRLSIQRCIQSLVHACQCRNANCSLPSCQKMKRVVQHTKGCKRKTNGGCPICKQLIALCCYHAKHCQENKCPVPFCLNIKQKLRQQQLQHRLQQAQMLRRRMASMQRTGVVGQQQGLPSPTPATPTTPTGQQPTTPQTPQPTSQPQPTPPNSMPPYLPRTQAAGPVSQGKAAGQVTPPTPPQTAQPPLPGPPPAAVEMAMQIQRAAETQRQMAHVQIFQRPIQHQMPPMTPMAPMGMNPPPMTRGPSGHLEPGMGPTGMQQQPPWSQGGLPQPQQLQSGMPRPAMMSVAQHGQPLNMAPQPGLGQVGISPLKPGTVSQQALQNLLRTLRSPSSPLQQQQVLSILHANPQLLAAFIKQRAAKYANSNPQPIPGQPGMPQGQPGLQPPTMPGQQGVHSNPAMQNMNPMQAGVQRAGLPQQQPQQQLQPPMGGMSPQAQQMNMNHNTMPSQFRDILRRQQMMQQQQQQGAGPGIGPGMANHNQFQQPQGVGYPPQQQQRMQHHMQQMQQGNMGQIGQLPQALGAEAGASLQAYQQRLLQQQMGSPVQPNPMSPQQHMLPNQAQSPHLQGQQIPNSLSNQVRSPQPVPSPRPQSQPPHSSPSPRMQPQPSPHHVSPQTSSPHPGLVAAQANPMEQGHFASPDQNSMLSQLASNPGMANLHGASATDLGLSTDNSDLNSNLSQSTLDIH
UniProt P41214: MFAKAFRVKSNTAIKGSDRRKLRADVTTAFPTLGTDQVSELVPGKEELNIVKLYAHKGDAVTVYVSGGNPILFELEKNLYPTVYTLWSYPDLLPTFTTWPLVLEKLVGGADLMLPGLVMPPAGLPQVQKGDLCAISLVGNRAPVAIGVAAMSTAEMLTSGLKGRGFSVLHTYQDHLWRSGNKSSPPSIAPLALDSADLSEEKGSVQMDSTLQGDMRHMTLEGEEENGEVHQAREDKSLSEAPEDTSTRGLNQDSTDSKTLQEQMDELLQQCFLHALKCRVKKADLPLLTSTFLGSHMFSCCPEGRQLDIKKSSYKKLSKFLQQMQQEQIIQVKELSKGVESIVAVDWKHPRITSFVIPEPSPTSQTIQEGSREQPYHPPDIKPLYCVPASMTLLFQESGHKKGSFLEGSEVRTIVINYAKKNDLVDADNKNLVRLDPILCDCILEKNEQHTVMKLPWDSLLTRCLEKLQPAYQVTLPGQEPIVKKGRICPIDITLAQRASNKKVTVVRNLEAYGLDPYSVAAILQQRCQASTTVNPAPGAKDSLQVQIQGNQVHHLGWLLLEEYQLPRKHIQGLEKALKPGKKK

Key:
Assay in all cases: log2 fold change, soluble protein after heating vs DMSO (PISA); higher = thermal stabilisation; K562 lysate, 10 uM; active = over 0.2 and 3.5 SD of the protein, either way, in both replicates (recomputed)
erlotinib = compound: C#Cc1cccc(Nc2ncnc3cc(OCCOC)c(OCCOC)cc23)c1 [erlotinib]
Method in brief: (§1)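 K562 pellets were dounce-homogenised in PBS pH 7.4 containing 1 mM MgCl2, and the crude extract, at 1 mg/mL protein, was exposed to 10 μM compound for 30 min. Aliquots were heated for 3 min across 48°C-58°C, pooled, brought to 0.5% NP-40 at 4°C and spun at 21,000xg for 90 min, with the supernatant taken as soluble protein. TMTpro 16plex LC-MS/MS with equalised channel sums quantified that protein. Values are log-two fold changes in thermal stability relative to solvent controls, taken from duplicates.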

[1] = compound: C/C(=N\NC(=O)C1=CC(=CC=C1)S(=O)(=O)N2CCOCC2)/C3=C(C=CC(=C3)Cl)O
Method in brief: as §1

[2] = compound: C1=CC(=CC=C1C2=NC3=C(N2)C=C(C=C3)C(=O)N)OC4=CC=C(C=C4)Cl
Method in brief: as §1

[3] = compound: C1=CC2=C(C=CC(=C2)/C=C\3/C(=O)NC(=NCC4=CC=CS4)S3)N=C1
Method in brief: as §1

[4] = compound: C1=CC2=NC=CN=C2C=C1/C=C/3\C(=O)NC(=O)S3
Method in brief: as §1

[5] = compound: C1=CC=C(C=C1)C2=NC(=C(N2)C3=CC=NC=C3)C4=CC(=C(C=C4)Cl)O
Method in brief: as §1

[6] = compound: C1=CC=C2C(=C1)C3=NNC4=CC=CC(=C43)C2=O
Method in brief: as §1

[7] = compound: C1CCN(C1)C(=O)NC2=CC=CC(=C2)NC3=NC=C(C(=N3)NCCC4=CN=CN4)Br
Method in brief: as §1

[8] = compound: C1CN(CCC1(CC2=CC=C(C=C2)Cl)N)C3=NC=NC4=C3C=CN4
Method in brief: as §1

IRAK-1-4 Inhibitor I = compound: C1COCCN1CCN2C3=CC=CC=C3N=C2NC(=O)C4=CC(=CC=C4)[N+](=O)[O-] [IRAK-1-4 Inhibitor I]
Method in brief: as §1

ibrutinib = compound: C=CC(=O)N1CCC[C@@H](n2nc(-c3ccc(Oc4ccccc4)cc3)c3c(N)ncnc32)C1 [ibrutinib]
Method in brief: as §1

[9] = compound: CC(=O)c1cnc2ccc(-c3cc(Cl)c(O)c(Cl)c3)nc2c1N[C@H]1CC[C@H](CN(C)C)CC1
Method in brief: as §1

ralimetinib = compound: CC(C)(C)Cn1c(N)nc2ccc(-c3[nH]c(C(C)(C)C)nc3-c3ccc(F)cc3)nc21 [ralimetinib]
Method in brief: as §1

[10] = compound: CC(C)(O)CC(=O)NCCn1ccc2ncnc(Nc3ccc(Oc4cccc(C(F)(F)F)c4)c(Cl)c3)c21
Method in brief: as §1

[11] = compound: CC(C)C1=C2N=C(C=C(N2N=C1)NCC3=CC=CC=C3)NCCCCCCN
Method in brief: as §1

[12] = compound: CC1=C(C(CC(=O)N1)C2=CC=C(C=C2)C(F)(F)F)C(=O)NC3=C(C=C4C(=C3)C=NN4)F
Method in brief: as §1

[13] = compound: CC1=C(C2=C(C=C1)C(=O)C3=CC=CC=C3N2CCCN)C
Method in brief: as §1

[14] = compound: CC1=C(C=C(C=C1)NC(=O)C2=CC(=CC=C2)C(C)(C)C#N)NC3=CC4=C(C=C3)N=CN(C4=O)C
Method in brief: as §1

[15] = compound: CC1=C(C=C(C=C1)NC(=O)C2=CC(=CC=C2)N(C)C)NC(=O)C3=CC=C(C=C3)O
Method in brief: as §1

[16] = compound: CC1=CC=C(C=C1)SC2=C3C=C(SC3=CN=C2)C(=O)N
Method in brief: as §1

Measured: log2 fold change

EPS15L1 isoform 2 (UniProt Q9UBC2)
inactive: erlotinib -0.009 | [1] -0.005 | [2] 0.081 | [3] -0.008 | [4] -0.036 | [5] -0.002 | [6] -0.012 | [7] 0.004 | [8] -0.022 | IRAK-1-4 Inhibitor I -0.002 | ibrutinib -0.003 | [9] -0.013 | ralimetinib 0.01 | [10] 0.004 | [11] 0.004 | [12] -0.012 | [13] 0.024 | [14] 0.002 | [15] 0.001 | [16] -0.025

EP400P1 isoform 6 (UniProt Q6ZTU2)
inactive: erlotinib 0 | [1] -0.255 | [2] -0.045 | [3] -0.247 | [4] -0.097 | [5] 0.004 | [6] 0.155 | [7] -0.028 | [8] 0.049 | IRAK-1-4 Inhibitor I 0.02 | ibrutinib 0.104 | [9] -0.168 | ralimetinib -0.053 | [10] -0.017 | [11] -0.021 | [12] -0.004 | [13] -0.04 | [14] 0.096 | [15] 0.015 | [16] 0.038

ELMOD2 (UniProt Q8IZ81)
inactive: erlotinib 0.005 | [1] 0.043 | [2] 0.033 | [3] -0.064 | [4] 0.043 | [5] -0.036 | [6] 0.021 | [7] -0.097 | [8] 0.049 | IRAK-1-4 Inhibitor I -0.031 | ibrutinib -0.025 | [9] -0.002 | ralimetinib 0.006 | [10] 0.007 | [11] 0.03 | [12] 0 | [13] 0.031 | [14] -0.003 | [15] -0.01 | [16] -0.004

EPCAM (UniProt P16422)
inactive: erlotinib 0.042 | [1] 0.018 | [2] 0.007 | [3] -0.04 | [4] 0 | [5] -0.029 | [6] 0.047 | [7] 0.002 | [8] -0.032 | IRAK-1-4 Inhibitor I 0.019 | ibrutinib -0.006 | [9] 0.031 | ralimetinib -0.007 | [10] -0.052 | [11] -0.115 | [12] -0.013 | [13] -0.104 | [14] 0.027 | [15] -0.102 | [16] -0.041

ELAVL1 isoform 2 (UniProt Q15717)
inactive: erlotinib 0.047 | [1] 0.008 | [2] 0.019 | [3] 0.025 | [4] -0.017 | [5] 0.001 | [6] -0.069 | [7] -0.027 | [8] 0.036 | IRAK-1-4 Inhibitor I -0.051 | ibrutinib 0.042 | [9] -0.034 | ralimetinib -0.016 | [10] 0.039 | [11] -0.009 | [12] -0.02 | [13] -0.026 | [14] -0.042 | [15] 0.028 | [16] 0.007

ELL (UniProt P55199)
inactive: erlotinib -0.03 | [1] -0.968 | [2] 0.052 | [3] -0.022 | [4] -0.05 | [5] -0.017 | [6] -0.065 | [7] -0.017 | [8] 0.033 | IRAK-1-4 Inhibitor I 0.012 | ibrutinib 0.01 | [9] -0.006 | ralimetinib 0.016 | [10] 0.003 | [11] 0.019 | [12] -0.075 | [13] -0.07 | [14] 0.006 | [15] 0.015 | [16] -0.002

ELOC (UniProt Q15369)
inactive: erlotinib 0.025 | [1] 0.065 | [2] -0.02 | [3] 0.016 | [4] -0.033 | [5] -0.002 | [6] -0.008 | [7] 0.005 | [8] 0.036 | IRAK-1-4 Inhibitor I 0.004 | ibrutinib 0.06 | [9] -0.024 | ralimetinib 0.027 | [10] -0.05 | [11] 0.013 | [12] -0.07 | [13] 0.007 | [14] 0.068 | [15] -0.067 | [16] 0.05

EIPR1 (UniProt Q53HC9)
inactive: erlotinib 0.011 | [1] -0.012 | [2] -0.002 | [3] -0.033 | [4] -0.019 | [5] 0.019 | [6] -0.017 | [7] -0.016 | [8] 0.004 | IRAK-1-4 Inhibitor I 0.004 | ibrutinib -0.012 | [9] -0.038 | ralimetinib 0.008 | [10] -0.009 | [11] -0.021 | [12] 0.002 | [13] -0.069 | [14] 0.031 | [15] -0.038 | [16] -0.013

EPB41L2 (UniProt O43491)
inactive: erlotinib -0.025 | [1] 0.004 | [2] 0.009 | [3] -0.026 | [4] -0.013 | [5] 0.001 | [6] 0.001 | [7] -0.004 | [8] 0.01 | IRAK-1-4 Inhibitor I 0.021 | ibrutinib 0.031 | [9] -0.006 | ralimetinib 0.003 | [10] -0.021 | [11] -0.01 | [12] -0.004 | [13] -0.011 | [14] -0.027 | [15] 0.005 | [16] 0.003

EPS15 (UniProt P42566)
inactive: erlotinib -0.006 | [1] 0.03 | [2] 0.026 | [3] -0.014 | [4] -0.004 | [5] 0.016 | [6] -0.026 | [7] -0.027 | [8] 0.02 | IRAK-1-4 Inhibitor I -0.001 | ibrutinib -0.002 | [9] -0.005 | ralimetinib -0.016 | [10] 0.005 | [11] -0.002 | [12] -0.01 | [13] -0.006 | [14] 0.002 | [15] 0.014 | [16] -0.013

ELAC2 (UniProt Q9BQ52)
inactive: erlotinib 0.003 | [1] -0.042 | [2] -0.002 | [3] 0.006 | [4] -0.002 | [5] 0.02 | [6] -0.001 | [7] 0.001 | [8] -0.004 | IRAK-1-4 Inhibitor I 0.028 | ibrutinib 0.035 | [9] 0.011 | ralimetinib 0.011 | [10] -0.025 | [11] -0.001 | [12] -0.043 | [13] 0.003 | [14] 0.036 | [15] -0.024 | [16] 0.003

EP300 (UniProt Q09472)
inactive: erlotinib 0.017 | [1] 0.011 | [2] -0.024 | [3] -0.017 | [4] 0.078 | [5] -0.015 | [6] -0.019 | [7] -0.033 | [8] 0 | IRAK-1-4 Inhibitor I -0.006 | ibrutinib 0.084 | [9] 0.117 | ralimetinib -0.026 | [10] -0.011 | [11] -0.07 | [12] 0.423 | [13] -0.011 | [14] -0.035 | [15] -0.025 | [16] -0.008

EIF2B2 (UniProt P49770)
inactive: erlotinib -0.028 | [1] 0.006 | [2] -0.012 | [3] 0.005 | [4] 0.045 | [5] 0.013 | [6] 0.017 | [7] 0.001 | [8] -0.014 | IRAK-1-4 Inhibitor I 0.015 | ibrutinib -0.002 | [9] 0.016 | ralimetinib 0.005 | [10] -0.015 | [11] -0.026 | [12] 0.012 | [13] 0.011 | [14] 0.013 | [15] 0.011 | [16] 0.007

2 successive records already listed, quoted:
ELL (UniProt P55199)
inactive: erlotinib -0.03 | [1] -0.968 | [2] 0.052 | [3] -0.022 | [4] -0.05 | [5] -0.017 | [6] -0.065 | [7] -0.017 | [8] 0.033 | IRAK-1-4 Inhibitor I 0.012 | ibrutinib 0.01 | [9] -0.006 | ralimetinib 0.016 | [10] 0.003 | [11] 0.019 | [12] -0.075 | [13] -0.07 | [14] 0.006 | [15] 0.015 | [16] -0.002

ELOC (UniProt Q15369)
inactive: erlotinib 0.025 | [1] 0.065 | [2] -0.02 | [3] 0.016 | [4] -0.033 | [5] -0.002 | [6] -0.008 | [7] 0.005 | [8] 0.036 | IRAK-1-4 Inhibitor I 0.004 | ibrutinib 0.06 | [9] -0.024 | ralimetinib 0.027 | [10] -0.05 | [11] 0.013 | [12] -0.07 | [13] 0.007 | [14] 0.068 | [15] -0.067 | [16] 0.05

Next entries.

ERGIC1 (UniProt Q969X5)
inactive: erlotinib -0.007 | [1] -0.169 | [2] 0.006 | [3] -0.017 | [4] 0.032 | [5] -0.067 | [6] -0.036 | [7] -0.019 | [8] -0.02 | IRAK-1-4 Inhibitor I -0.02 | ibrutinib 0.027 | [9] 0.014 | ralimetinib -0.032 | [10] -0.044 | [11] -0.008 | [12] -0.005 | [13] -0.029 | [14] -0.039 | [15] 0.019 | [16] -0.003

EMC7 (UniProt Q9NPA0)
inactive: erlotinib 0.023 | [1] -0.011 | [2] -0.009 | [3] -0.02 | [4] -0.044 | [5] -0.011 | [6] -0.052 | [7] -0.002 | [8] 0.011 | IRAK-1-4 Inhibitor I 0.02 | ibrutinib -0.033 | [9] -0.001 | ralimetinib 0.008 | [10] -0.003 | [11] 0.013 | [12] -0.012 | [13] 0.024 | [14] 0.015 | [15] -0.006 | [16] -0.032

EIF2D (UniProt P41214)
inactive: erlotinib 0.048 | [1] 0.019 | [2] -0.017 | [3] 0.054 | [4] 0.001 | [5] 0.008 | [6] -0.016 | [7] 0.025 | [8] 0.021 | IRAK-1-4 Inhibitor I -0.023 | ibrutinib 0.011 | [9] -0.017 | ralimetinib 0.018 | [10] 0.026 | [11] 0.03 | [12] -0.005 | [13] -0.03 | [14] -0.004 | [15] 0.016 | [16] 0.01
